According to PubChem BioAssay AID248 (DTP/NCI, 2004):
The list does not hold the whole screen: its compounds were picked by chemical class. Not every dose and run of a compound is shown. T/C is the treated group as % of the vehicle group. Where survival is the endpoint, this PubChem deposit counts one and a half times the control or more as active, and values a quarter to a half above the control carry no call in these data; other NCI protocols may use other cut-offs. Some T/C values are marked as having no survivor count here; that says nothing about deaths at the dose. Schedules are NCI's codes, taken here to give the interval after Q, in days (D) or hours (H), and the number of doses after X. Some schedules carry Z or #; the key to these is not given. Some entries hold several experiments; their values stand side by side, smallest first.

Test system: L1210 leukemia ip in BDF1 mice, survival T/C
Test: NCI In Vivo Anticancer Drug Screen. Data for tumor model L1210 Leukemia (intraperitoneal) in B6D2F1 (BDF1) mice
Conditions: T/C endpoint: mean survival time, higher T/C = longer survival

## NC(Cc1ccccc1N(CCCl)CCCl)C(=O)O (stereo not given)
dose: 0.01 mg/kg/injection, schedule: Q01DX Z (ip), vehicle: carboxymethylcellulose (CMC)
  T/C: 185 % of control [survivor count not shown]
dose: 0.03 mg/kg/injection, schedule: Q01DX Z (ip), vehicle: carboxymethylcellulose (CMC)
  T/C: 125 % of control [survivor count not shown]
dose: 0.04 mg/kg/injection, schedule: Q01DX005 (ip), vehicle: saline
  T/C: 94 % of control [survivor count not shown]
dose: 0.04 mg/kg/injection, schedule: Q01DX009 (ip), vehicle: saline
  T/C: 101 % of control [survivor count not shown]
dose: 0.06 mg/kg/injection, schedule: Q01DX Z (ip), vehicle: carboxymethylcellulose (CMC)
  T/C: 101 [survivor count not shown] and 128 % of control [survivor count not shown]
dose: 0.08 mg/kg/injection, schedule: Q01DX005 (ip), vehicle: saline
  T/C: 116 % of control [survivor count not shown]
dose: 0.08 mg/kg/injection, schedule: Q01DX009 (ip), vehicle: saline
  T/C: 110 % of control [survivor count not shown]
dose: 0.12 mg/kg/injection, schedule: Q01DX Z (ip), vehicle: carboxymethylcellulose (CMC)
  T/C: 152 % of control [survivor count not shown]
dose: 0.16 mg/kg/injection, schedule: Q01DX005 (ip), vehicle: saline
  T/C: 110 % of control [survivor count not shown]
dose: 0.16 mg/kg/injection, schedule: Q01DX009 (ip), vehicle: saline
  T/C: 106 % of control [survivor count not shown]
dose: 0.2 mg/kg/injection, schedule: Q01DX009 (oral), vehicle: saline
  T/C: 101 % of control [survivor count not shown]
dose: 0.25 mg/kg/injection, schedule: Q01DX010 (ip), vehicle: saline
  T/C: 135 % of control [survivor count not shown]
dose: 0.25 mg/kg/injection, schedule: Q01DX Z (ip), vehicle: carboxymethylcellulose (CMC)
  T/C: 162 % of control [survivor count not shown]
dose: 0.25 mg/kg/injection, schedule: Q01DX Z (ip), vehicle: methylcellulose (MC)
  T/C: 113 % of control [survivor count not shown]
dose: 0.25 mg/kg/injection, schedule: Q01DX Z (oral), vehicle: carboxymethylcellulose (CMC)
  T/C: 122 % of control [survivor count not shown]
dose: 0.3 mg/kg/injection, schedule: Q03HX024 (ip), vehicle: saline
  T/C: 115 % of control [survivor count not shown]
dose: 0.3 mg/kg/injection, schedule: Q04DX003 (ip), vehicle: saline
  T/C: 113 % of control [survivor count not shown]
dose: 0.32 mg/kg/injection, schedule: Q01DX005 (ip), vehicle: saline
  T/C: 119 % of control [survivor count not shown]
dose: 0.32 mg/kg/injection, schedule: Q01DX009 (ip), vehicle: saline
  T/C: 106 % of control [survivor count not shown]
dose: 0.38 mg/kg/injection, schedule: Q03DX Z (ip), vehicle: carboxymethylcellulose (CMC)
  T/C: 128 % of control [survivor count not shown]
dose: 0.4 mg/kg/injection, schedule: Q01DX009 (oral), vehicle: saline
  T/C: 121 % of control [survivor count not shown]
dose: 0.4 mg/kg/injection, schedule: Q01DX009 (sc), vehicle: saline
  T/C: 101 % of control [survivor count not shown]
dose: 0.44 mg/kg/injection, schedule: Q01DX001 (ip), vehicle: carboxymethylcellulose (CMC)
  T/C: 125 % of control [survivor count not shown]
dose: 0.5 mg/kg/injection, schedule: Q01DX006 (iv), vehicle: carboxymethylcellulose (CMC)
  T/C: 101 % of control [survivor count not shown]
dose: 0.5 mg/kg/injection, schedule: Q01DX010 (ip), vehicle: saline
  T/C: 148 % of control [survivor count not shown]
dose: 0.5 mg/kg/injection, schedule: Q01DX Z (im), vehicle: carboxymethylcellulose (CMC)
  T/C: 111 % of control [survivor count not shown]
dose: 0.5 mg/kg/injection, schedule: Q01DX Z (ip), vehicle: carboxymethylcellulose (CMC)
  T/C: 156 % of control [survivor count not shown]
dose: 0.5 mg/kg/injection, schedule: Q01DX Z (ip), vehicle: methylcellulose (MC)
  T/C: 174 % of control [survivor count not shown]
dose: 0.5 mg/kg/injection, schedule: Q01DX Z (oral), vehicle: carboxymethylcellulose (CMC)
  T/C: 175 % of control [survivor count not shown]
dose: 0.5 mg/kg/injection, schedule: Q01DX Z (sc), vehicle: carboxymethylcellulose (CMC)
  T/C: 106 % of control [survivor count not shown]
dose: 0.5 mg/kg/injection, schedule: Q03HX016 (ip), vehicle: saline
  T/C: 100 % of control [survivor count not shown]
dose: 0.5 mg/kg/injection, schedule: Q08DX002 (ip), vehicle: saline
  T/C: 113 % of control [survivor count not shown]
dose: 0.6 mg/kg/injection, schedule: Q03HX024 (ip), vehicle: saline
  T/C: 108 % of control [survivor count not shown]
dose: 0.6 mg/kg/injection, schedule: Q04DX003 (ip), vehicle: saline
  T/C: 121 % of control [survivor count not shown]
dose: 0.64 mg/kg/injection, schedule: Q01DX005 (ip), vehicle: saline
  T/C: 124 % of control [survivor count not shown]
dose: 0.64 mg/kg/injection, schedule: Q01DX009 (ip), vehicle: saline
  T/C: 120 % of control [survivor count not shown]
dose: 0.75 mg/kg/injection, schedule: Q03DX Z (ip), vehicle: carboxymethylcellulose (CMC)
  T/C: 152 % of control [survivor count not shown]
dose: 0.8 mg/kg/injection, schedule: Q01DX009 (oral), vehicle: saline
  T/C: 117 % of control [survivor count not shown]
dose: 0.8 mg/kg/injection, schedule: Q01DX009 (sc), vehicle: saline
  T/C: 115 % of control [survivor count not shown]
dose: 0.88 mg/kg/injection, schedule: Q01DX001 (ip), vehicle: carboxymethylcellulose (CMC)
  T/C: 106 % of control [survivor count not shown]
dose: 0.88 mg/kg/injection, schedule: Q07DX Z (ip), vehicle: carboxymethylcellulose (CMC)
  T/C: 143 % of control [survivor count not shown]
dose: 1.0 mg/kg/injection, schedule: Q01DX006 (iv), vehicle: carboxymethylcellulose (CMC)
  T/C: 116 % of control [survivor count not shown]
dose: 1.0 mg/kg/injection, schedule: Q01DX010 (ip), vehicle: saline
  T/C: 167 % of control [survivor count not shown]
dose: 1.0 mg/kg/injection, schedule: Q01DX Z (im), vehicle: carboxymethylcellulose (CMC)
  T/C: 126 % of control [survivor count not shown]
dose: 1.0 mg/kg/injection, schedule: Q01DX Z (ip), vehicle: carboxymethylcellulose (CMC)
  T/C: 191 % of control [survivor count not shown]
dose: 1.0 mg/kg/injection, schedule: Q01DX Z (ip), vehicle: methylcellulose (MC)
  T/C: 202 % of control [survivor count not shown]
dose: 1.0 mg/kg/injection, schedule: Q01DX Z (oral), vehicle: carboxymethylcellulose (CMC)
  T/C: 181 % of control [survivor count not shown]
dose: 1.0 mg/kg/injection, schedule: Q01DX Z (sc), vehicle: carboxymethylcellulose (CMC)
  T/C: 152 % of control [survivor count not shown]
dose: 1.0 mg/kg/injection, schedule: Q03HX016 (ip), vehicle: saline
  T/C: 109 % of control [survivor count not shown]
dose: 1.0 mg/kg/injection, schedule: Q03HX024 (ip), vehicle: saline
  T/C: 122 % of control [survivor count not shown]
dose: 1.0 mg/kg/injection, schedule: Q04DX003 (ip), vehicle: saline
  T/C: 151 % of control [survivor count not shown]
dose: 1.0 mg/kg/injection, schedule: Q08DX002 (ip), vehicle: saline
  T/C: 117 % of control [survivor count not shown]
dose: 1.2 mg/kg/injection, schedule: Q03HX024 (ip), vehicle: saline
  T/C: 121 % of control [survivor count not shown]
dose: 1.2 mg/kg/injection, schedule: Q04DX003 (ip), vehicle: saline
  T/C: 133 % of control [survivor count not shown]
dose: 1.28 mg/kg/injection, schedule: Q01DX005 (ip), vehicle: saline
  T/C: 140 % of control [survivor count not shown]
dose: 1.28 mg/kg/injection, schedule: Q01DX009 (ip), vehicle: saline
  T/C: 125 % of control [survivor count not shown]
dose: 1.5 mg/kg/injection, schedule: Q03DX Z (ip), vehicle: carboxymethylcellulose (CMC)
  T/C: 192 % of control [survivor count not shown]
dose: 1.6 mg/kg/injection, schedule: Q01DX001 (ip), vehicle: saline
  T/C: 129 % of control [survivor count not shown]
dose: 1.6 mg/kg/injection, schedule: Q01DX001 (oral), vehicle: saline
  T/C: 103 % of control [survivor count not shown]
dose: 1.6 mg/kg/injection, schedule: Q01DX009 (oral), vehicle: saline
  T/C: 127 % of control [survivor count not shown]
